This is an account of results in article PMC4915019.

The target of this experiment is Cyclin-dependent kinase 4. Description: co-IP; COS-1 cells cotransfected with pcDNA3-ccndx-myc and pcDNA3-cdk4-HA; lysate in IP-lysis buffer (150 mM NaCl, 20 mM HEPES pH 7.2, 1% NP-40) at 72 h; Protein A/G PLUS-Agarose; legend: IP with anti-HA, detection with anti-Myc (methods: IP with anti-myc, blot with anti-HA).

Results are given in words; binding and its absence hold for the method and conditions named. Binding seen in cells or lysates may run through a third protein. A result given as binding can be weak or reduced; the word gives no strength.

B1: zebrafish cyclin Dx (protein, UniProt D3GDI9 1-297)
chain: MSVSLWCEEDSGRDRTHQASVRAPWDPSASGQRVIQRLLQSEERYLPSSLYISLVQREPQRREELAKWTMEVCCECDCDESVFPLAVSLLDRYLSATLSLPVSPSCLAAACILLASKVTESDTVSADTLCAAAEYDFLSANLREMERVVLATLRWDVLAVTPQDFIPLFLRTLGELRDGDGHTGDFLTTMRRHGDTLVAMCVCDSRFLGTPPSLVAAAALNSALRGLRARSAGEMSLMTAALATLCQTDVALLQCCTELIDGALRERLRTGAQEQKDGDIEEEERASTPTDLREIDF
On to B1, for which the binding result is on record as “binds”.
